# Source: article PMC7819943, “Rice protein-binding microarrays: a tool to detect cis-acting elements near promoter regions in rice”
# Amino acid sequences for entries named in this document (tags omitted).
# UniProt Q0JBA9, entry or part of it: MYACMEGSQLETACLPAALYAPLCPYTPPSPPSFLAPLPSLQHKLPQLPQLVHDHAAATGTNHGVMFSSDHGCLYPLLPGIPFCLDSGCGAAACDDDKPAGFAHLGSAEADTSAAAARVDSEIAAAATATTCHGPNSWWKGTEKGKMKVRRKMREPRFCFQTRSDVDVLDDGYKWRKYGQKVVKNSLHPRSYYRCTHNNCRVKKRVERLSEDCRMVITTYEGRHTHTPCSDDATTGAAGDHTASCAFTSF
# The list shows a part of the results.
# Target: OsWRKY34 (Oryza sativa, UniProt Q0JBA9 1-250)
# Assay: protein-binding microarray (RPBM); PBS, 2% BSA, 51.3 ng/ul salmon testes DNA, 50 uM zinc acetate, 200 nM TF, 25 C, 1 h; high values mean tight binding
# Settings: protein: recombinant; tags: N-terminal polyhistidine and DsRed monomer fusion (pET32a); label: CyDye5-dUTP incorporated in the synthesized complementary strand; 3' TTTTT single-stranded linker to array surface; dsDNA, one strand shown
# Outline: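 Ni–NTA purification followed expression in E. coli BL21-CodonPlus of transcription factors fused N-terminally to a polyhistidine tag and DsRed. At 200 nM in PBS with 2% BSA, salmon testes DNA and 50 µM zinc acetate, the protein was incubated for 1 h at 25 °C with a custom Agilent array that had been primer-extended with Cy5-dUTP and blocked with 2% BSA. After washing, the array was read on an Axon 4000B scanner. The binding signal is per-feature fluorescence intensity in arbitrary units.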
row,Sequence,binding signal
1,AGACAGAGGAATAGTATCGTGCCGTAACCGCAGCTGCAACCGGAGTCACCTAGTGCAG,11200 fluorescence intensity (a.u.)
2,CCGCCATGTGGGCCCCACCTCGCCGCCTCCGCTCCACTCTCGGAGTCACCTAGTGCAG,13600 fluorescence intensity (a.u.)
3,TGGGTTTCCGTGTCCAACGTTTGACTGTCCGTCTTATATGCGGAGTCACCTAGTGCAG,12000 fluorescence intensity (a.u.)
4,TTTTTGTTTTTTTCTCTGGCTATTGTTGCAATCCAAATGACGGAGTCACCTAGTGCAG,12600 fluorescence intensity (a.u.)
5,TAACACCAACAGCTTCCTACCACTTCACCTTTTATCATAACGGAGTCACCTAGTGCAG,9560 fluorescence intensity (a.u.)
6,TCCTTGTCCTCTTCTGTGTTCTTCCTCTCTTGCTGATCACCGGAGTCACCTAGTGCAG,12100 fluorescence intensity (a.u.)
7,ACAGTGTGTTTTCTTGTAAGTTACAGTGTAATTTTTTAATCGGAGTCACCTAGTGCAG,8080 fluorescence intensity (a.u.)
8,CCACACGCATGGGCTGCATTTCGCCTCTTAAATTAATCAACGGAGTCACCTAGTGCAG,10000 fluorescence intensity (a.u.)
9,TTTTTTCACCCTGATGTCACAGCCACAGCAGCAGTAGTACCGGAGTCACCTAGTGCAG,11500 fluorescence intensity (a.u.)
10,TAGCTTTTGCACTTCTCTCCACAGCCTAAAATCCAATCCACGGAGTCACCTAGTGCAG,8860 fluorescence intensity (a.u.)
11,TGCATGCATTATGACTTTTGACTTGTGACACATAGTCACACGGAGTCACCTAGTGCAG,8260 fluorescence intensity (a.u.)
12,CGCCAATTGTCAATTCCGACACAACTTTGCTACTTTAACACGGAGTCACCTAGTGCAG,8770 fluorescence intensity (a.u.)
13,AATTCGCATGATTGTTTTCGTTTTGTTGGTCAGTGAATGACGGAGTCACCTAGTGCAG,8320 fluorescence intensity (a.u.)
14,CCGTTTCACAATGTAAGTCATTTCTAGCATTTCCCACATTCGGAGTCACCTAGTGCAG,10800 fluorescence intensity (a.u.)
15,CCCTCTTCTCCTTTGCTTGGTCTCGTTTCGTCGCTGTCGTCGGAGTCACCTAGTGCAG,8260 fluorescence intensity (a.u.)
16,AGTCGTCCTCTATTCCTCTTGTCTTTCTTCAATTGTTATTCGGAGTCACCTAGTGCAG,10700 fluorescence intensity (a.u.)
17,TACACGTTATACGTGTGTCTGGTTGGGGAAATTTTAGGAACGGAGTCACCTAGTGCAG,9830 fluorescence intensity (a.u.)
18,GCCGCGCCGTCCTCTTCATCTGCACTTGCACTGCGCCATGCGGAGTCACCTAGTGCAG,12200 fluorescence intensity (a.u.)
19,CCCGTCTCTCCTCCTGATCGCTCGTTGTTGTCTCTTCTCGCGGAGTCACCTAGTGCAG,9090 fluorescence intensity (a.u.)
20,CCTTTTTGTTTCTGTTTCTTCTGTTGTAAACAAACCCTTACGGAGTCACCTAGTGCAG,13100 fluorescence intensity (a.u.)
21,GTTGGTGGTGGTGGTGGTAGCTTTGGGGCGTTTGGCTCGGCGGAGTCACCTAGTGCAG,15800 fluorescence intensity (a.u.)

row,Sequence,binding signal
1,CCCGGATTTTTTTTGGATCGGACTGATTTGTTTTTTTTTTCGGAGTCACCTAGTGCAG,8860 fluorescence intensity (a.u.)
2,TGTTCTGTTCATAGTCAGTCGCGTCTTCTTGTATTGGTTTCGGAGTCACCTAGTGCAG,10000 fluorescence intensity (a.u.)
3,TGACATATTATTTCCTTTTATTTGCATAGAATTGACATTACGGAGTCACCTAGTGCAG,8380 fluorescence intensity (a.u.)
4,ATCCCCTTTCTATGTAACTGCAGGGCAATTTCGTCTGGTCCGGAGTCACCTAGTGCAG,8510 fluorescence intensity (a.u.)
5,ATTTCCACCTGCTCATCTATATCTATCTATCATCAAGCTGCGGAGTCACCTAGTGCAG,8380 fluorescence intensity (a.u.)
6,ATCACGCCAGTCACCACGCTTGGCATATGCTGGTAAATATCGGAGTCACCTAGTGCAG,8130 fluorescence intensity (a.u.)
7,GACTCTCCCCATTGTGTCACATGGGCCTTTTGCTTTGTGACGGAGTCACCTAGTGCAG,10300 fluorescence intensity (a.u.)
8,TTTGCTCAGAGAGAGGCCCAATCCGTGTCAATATTTGTCCCGGAGTCACCTAGTGCAG,8530 fluorescence intensity (a.u.)
9,CCTTCGCTCGCCACGTGGCAGCCGCTAGTCCTTATCGCCGCGGAGTCACCTAGTGCAG,10300 fluorescence intensity (a.u.)
10,CCTCGACCTCAGCAAGAACAACCTCTCCGGCGCGATCCCCCGGAGTCACCTAGTGCAG,9010 fluorescence intensity (a.u.)
11,TTGCTACTTACAAATACTACTTTTTTTCTCTTTCTTTTTTCGGAGTCACCTAGTGCAG,12400 fluorescence intensity (a.u.)
12,TTCGCCATCCGTAATTCCGGTTTCTTCTGCGCAACACCAACGGAGTCACCTAGTGCAG,8400 fluorescence intensity (a.u.)
13,AAGTCACCTCCTTTCTCTTTGCTTTTCTTCACTCCGAAATCGGAGTCACCTAGTGCAG,8240 fluorescence intensity (a.u.)
14,ATATATATATATATATATAGTCAAACATATCCCATGAATACGGAGTCACCTAGTGCAG,9320 fluorescence intensity (a.u.)
15,ATCTTTTCACTTTTCACTTTAGACTAGGTAACTTTGCCTTCGGAGTCACCTAGTGCAG,8490 fluorescence intensity (a.u.)
16,ACATTCCAGGGCTCCCATCAGTTGCCATTTTACCTAAAATCGGAGTCACCTAGTGCAG,9040 fluorescence intensity (a.u.)
17,ATTCATATAACCATGTCCTTATTATGTCATGTTTGGATTGCGGAGTCACCTAGTGCAG,8360 fluorescence intensity (a.u.)
18,GTTTTACACATGCATTCCTGTCAGAATCCTACGTTTTTTCCGGAGTCACCTAGTGCAG,8120 fluorescence intensity (a.u.)
19,AGCCACTGCATCATTTCATTTCTGCGCTCCTCATCTACTACGGAGTCACCTAGTGCAG,12700 fluorescence intensity (a.u.)
20,CACACCAACGTTTTCTTTGTGCAGACACATTCTTACATGTCGGAGTCACCTAGTGCAG,10500 fluorescence intensity (a.u.)
21,GACTTTGACCATTAAGCTTTGAAATGATGGCTTTCTTTGACGGAGTCACCTAGTGCAG,8670 fluorescence intensity (a.u.)

# Laid out differently: results already given.
row	Sequence	binding signal
3	TGACATATTATTTCCTTTTATTTGCATAGAATTGACATTACGGAGTCACCTAGTGCAG	8380 fluorescence intensity (a.u.)
4	ATCCCCTTTCTATGTAACTGCAGGGCAATTTCGTCTGGTCCGGAGTCACCTAGTGCAG	8510 fluorescence intensity (a.u.)
